{
  "source": "patent US20250090437A1",
  "about": "“COSMETIC COMPOUNDING AGENT, COSMETIC AND PRODUCTION METHOD THEREOF” (MIYOSHI OIL & FAT CO., LTD., priority 2019, published 2025)",
  "experiment": "Water retention property test 3 (long term)",
  "assay_type": "physicochemical",
  "settings": "80 wt % aqueous solution, 40° C., 25% RH, after 192 hours",
  "procedure": "In a water retention property test 3, an 80 wt % aqueous solution of each of the compounds C8, C11, C62, C63 and C64 was prepared, followed by using a Karl Fischer moisture meter to confirm that a moisture rate was 20.0 wt %. Next, 1.0 g of each of these samples was added to a screw tube, and this screw tube, while remaining unsealed, was then left to stand still in a thermo-hygrostat set to 40° C. and 25% RH. […] In addition, the water retention property was evaluated by calculating an amount of moisture reduction per hour (mg/h) based on each amount of moisture reduction (mg).",
  "note": "Some entries share one result that the patent states for a list of compounds.",
  "data": [
    {"smiles": "OCC(O)CO", "note": "[Compound A52, glycerin, reference compound]", "values": [
      {"measurement": "Moisture rate", "value": "smaller than 1%"}
    ]}
  ]
}
